Test results taken from article PMC7862700.
Only a part is listed here, and it is no random draw. At the low end of the ranking the order means little.

Protein sequences, listed by entry. Tags and fused reporters are not part of them. Lines headed by an entry give the natural chain unless they say otherwise; changes in a name come on top.
UniProt Q99607: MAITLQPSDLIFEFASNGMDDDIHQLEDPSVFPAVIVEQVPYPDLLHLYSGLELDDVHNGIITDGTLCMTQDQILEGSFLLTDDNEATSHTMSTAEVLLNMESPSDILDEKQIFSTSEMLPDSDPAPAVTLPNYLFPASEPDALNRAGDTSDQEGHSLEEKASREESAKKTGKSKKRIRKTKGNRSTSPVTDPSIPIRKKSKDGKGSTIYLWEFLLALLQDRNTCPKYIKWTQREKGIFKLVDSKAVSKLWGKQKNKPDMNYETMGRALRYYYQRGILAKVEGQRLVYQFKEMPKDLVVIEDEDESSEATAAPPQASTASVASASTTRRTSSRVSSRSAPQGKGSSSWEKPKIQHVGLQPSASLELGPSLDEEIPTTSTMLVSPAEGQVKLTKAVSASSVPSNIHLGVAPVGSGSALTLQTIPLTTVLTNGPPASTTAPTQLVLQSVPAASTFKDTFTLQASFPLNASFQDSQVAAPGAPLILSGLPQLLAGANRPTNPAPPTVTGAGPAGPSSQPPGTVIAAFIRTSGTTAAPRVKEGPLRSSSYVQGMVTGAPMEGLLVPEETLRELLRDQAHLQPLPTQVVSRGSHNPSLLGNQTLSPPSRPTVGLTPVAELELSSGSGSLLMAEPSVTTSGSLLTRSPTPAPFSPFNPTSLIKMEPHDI

molecular target: T1, FLI1 (UniProt Q01543); assay: DAPPL (digital affinity profiling via proximity ligation, sequencing); conditions: 10 mM Tris-HCl pH 7.5, 50 mM NaCl, 1 mM DTT, 4% glycerol, room temperature, 30 min; GST-TFs on glutathione beads, 16-mer random dsDNA library, 0.1% …; high values mean tight binding; double strand, one strand shown; scale: fold enrichment (6-mer frequency, TF over GST control)
T1 sequence: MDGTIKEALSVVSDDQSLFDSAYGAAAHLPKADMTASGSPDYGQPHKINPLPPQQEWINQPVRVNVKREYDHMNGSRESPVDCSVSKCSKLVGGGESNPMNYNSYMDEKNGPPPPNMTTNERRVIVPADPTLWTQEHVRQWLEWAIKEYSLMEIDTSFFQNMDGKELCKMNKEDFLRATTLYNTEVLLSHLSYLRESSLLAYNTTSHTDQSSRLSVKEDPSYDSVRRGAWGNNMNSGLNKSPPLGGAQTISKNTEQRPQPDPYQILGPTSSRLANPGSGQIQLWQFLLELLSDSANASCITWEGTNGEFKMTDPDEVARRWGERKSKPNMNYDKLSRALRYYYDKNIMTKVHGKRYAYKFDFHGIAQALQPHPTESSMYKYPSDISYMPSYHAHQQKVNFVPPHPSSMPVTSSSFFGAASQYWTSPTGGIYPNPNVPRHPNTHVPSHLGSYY

Q: Which binding signal does the source give for TGAAAT here?
A: Its binding signal is 0.935.

Q: Which binding signal does the source give for GTCCAT here?
A: The binding signal was 1.22.

Q: Which binding signal does the source give for TAGGAT here?
A: The binding signal was 0.979.

Q: Which binding signal does the source give for TCCGGT here?
A: The binding signal was 3.61.

Q: Which binding signal does the source give for CTTCGT here?
A: The binding signal was 1.34.

Q: For TTCTGG, which binding signal is on record?
A: The binding signal was 1.36.

Q: With TTATAA as the sequence, how does the binding signal read?
A: Its binding signal is 1.21.

Q: With TTCGCC as the sequence, how does the binding signal read?
A: Its binding signal is 1.26.

Q: For ACTGGA, which binding signal is on record?
A: Its binding signal is 0.983.

Q: With CAATGC as the sequence, how does the binding signal read?
A: The binding signal was 1.21.

Q: With ATTGTA as the sequence, how does the binding signal read?
A: The binding signal was 1.22.

Q: Which binding signal does the source give for CCCAAA here?
A: The binding signal was 0.994.

Q: For GACTTC, which binding signal is on record?
A: Its binding signal is 2.39.

Q: With CATAAC as the sequence, how does the binding signal read?
A: The binding signal was 1.09.

Q: With TTTGGG as the sequence, how does the binding signal read?
A: The binding signal was 1.27.

Q: Which binding signal does the source give for ATGTGG here?
A: The binding signal was 1.08.

Q: AACAAC was tested. Which binding signal did it give?
A: The binding signal was 1.24.

Q: For CCCGTA, which binding signal is on record?
A: The binding signal was 1.14.

Q: How did the binding signal turn out when CATTAA was run?
A: Its binding signal is 0.974.

Q: For ATCCAC, which binding signal is on record?
A: The binding signal was 1.23.

Q: With TCAAAG as the sequence, how does the binding signal read?
A: Its binding signal is 1.08.

Q: TGAATG was tested. Which binding signal did it give?
A: Its binding signal is 1.16.

Q: Which binding signal does the source give for TGCCCA here?
A: Its binding signal is 1.21.

Q: With CTAACA as the sequence, how does the binding signal read?
A: The binding signal was 1.28.

Q: How did the binding signal turn out when CGAATC was run?
A: The binding signal was 1.

Q: For TCAAGT, which binding signal is on record?
A: The binding signal was 0.993.

Q: Which binding signal does the source give for TTATTC here?
A: The binding signal was 1.48.

Q: AATACT was tested. Which binding signal did it give?
A: The binding signal was 1.16.

Q: For AAACTC, which binding signal is on record?
A: Its binding signal is 1.29.

Q: For GTATAA, which binding signal is on record?
A: Its binding signal is 1.02.

Q: For GTTGAC, which binding signal is on record?
A: Its binding signal is 1.11.

Q: How did the binding signal turn out when ACTATC was run?
A: The binding signal was 1.15.

Q: How did the binding signal turn out when TCTTGG was run?
A: The binding signal was 1.44.

Q: With TAACGG as the sequence, how does the binding signal read?
A: Its binding signal is 1.1.

Q: TGTCTA was tested. Which binding signal did it give?
A: Its binding signal is 1.2.

Q: With TACAGA as the sequence, how does the binding signal read?
A: Its binding signal is 1.08.

Q: How did the binding signal turn out when AGCTGC was run?
A: Its binding signal is 1.16.

Q: For ACAGCT, which binding signal is on record?
A: Its binding signal is 1.15.

Q: Which binding signal does the source give for AAGATC here?
A: The binding signal was 0.995.

Q: With AATAAA as the sequence, how does the binding signal read?
A: The binding signal was 1.2.

molecular target: ELF4 (UniProt Q99607); assay: as above; conditions: 10 mM Tris-HCl pH 7.5, 50 mM NaCl, 1 mM DTT, 4% glycerol, room temperature, 30 min; GST-TFs on glutathione beads, 16-mer random dsDNA library, 0.1% …; high values mean tight binding; double strand, one strand shown; scale: fold enrichment (6-mer frequency, TF over GST control)

Q: How did the binding signal turn out when TGAAAT was run?
A: The binding signal was 0.989.

Q: How did the binding signal turn out when GTCCAT was run?
A: Its binding signal is 1.1.

Q: How did the binding signal turn out when TAGGAT was run?
A: The binding signal was 1.

Q: Which binding signal does the source give for TCCGGT here?
A: Its binding signal is 3.32.

Q: Which binding signal does the source give for CTTCGT here?
A: Its binding signal is 1.29.

Q: How did the binding signal turn out when TTCTGG was run?
A: The binding signal was 1.29.

Q: For TTATAA, which binding signal is on record?
A: The binding signal was 1.11.

Q: Which binding signal does the source give for TTCGCC here?
A: The binding signal was 1.05.

Q: How did the binding signal turn out when ACTGGA was run?
A: The binding signal was 1.1.

Q: Which binding signal does the source give for CAATGC here?
A: Its binding signal is 1.3.

Q: For CCCAAA, which binding signal is on record?
A: The binding signal was 1.17.

Q: Which binding signal does the source give for GACTTC here?
A: Its binding signal is 2.28.

Q: With CATAAC as the sequence, how does the binding signal read?
A: The binding signal was 1.1.

Q: TTTGGG was tested. Which binding signal did it give?
A: Its binding signal is 1.41.

Q: How did the binding signal turn out when CCCGTA was run?
A: Its binding signal is 1.16.

Q: For CATTAA, which binding signal is on record?
A: Its binding signal is 1.07.

Q: How did the binding signal turn out when ATCCAC was run?
A: The binding signal was 1.22.

Q: TCAAAG was tested. Which binding signal did it give?
A: Its binding signal is 1.14.

Q: How did the binding signal turn out when TGAATG was run?
A: Its binding signal is 1.16.

Q: CTAACA was tested. Which binding signal did it give?
A: Its binding signal is 1.2.

Q: How did the binding signal turn out when CGAATC was run?
A: Its binding signal is 0.932.

Q: How did the binding signal turn out when TTATTC was run?
A: Its binding signal is 1.41.

Q: How did the binding signal turn out when AATACT was run?
A: Its binding signal is 1.16.

Q: How did the binding signal turn out when AAACTC was run?
A: The binding signal was 1.22.

Q: Which binding signal does the source give for GTATAA here?
A: The binding signal was 1.05.

Q: For GTTGAC, which binding signal is on record?
A: Its binding signal is 1.15.

Q: With ACTATC as the sequence, how does the binding signal read?
A: The binding signal was 1.24.

Q: How did the binding signal turn out when TCTTGG was run?
A: The binding signal was 1.39.

Q: TAACGG was tested. Which binding signal did it give?
A: Its binding signal is 0.998.

Q: Which binding signal does the source give for TGTCTA here?
A: Its binding signal is 1.2.

Q: Which binding signal does the source give for TACAGA here?
A: Its binding signal is 1.13.

Q: Which binding signal does the source give for AGCTGC here?
A: The binding signal was 1.16.

Q: Which binding signal does the source give for ACAGCT here?
A: Its binding signal is 1.15.

molecular target: T2, ETV2 (UniProt O00321); assay: as above; conditions: 10 mM Tris-HCl pH 7.5, 50 mM NaCl, 1 mM DTT, 4% glycerol, room temperature, 30 min; GST-TFs on glutathione beads, 16-mer random dsDNA library, 0.1% …; high values mean tight binding; double strand, one strand shown; scale: fold enrichment (6-mer frequency, TF over GST control)
T2 sequence: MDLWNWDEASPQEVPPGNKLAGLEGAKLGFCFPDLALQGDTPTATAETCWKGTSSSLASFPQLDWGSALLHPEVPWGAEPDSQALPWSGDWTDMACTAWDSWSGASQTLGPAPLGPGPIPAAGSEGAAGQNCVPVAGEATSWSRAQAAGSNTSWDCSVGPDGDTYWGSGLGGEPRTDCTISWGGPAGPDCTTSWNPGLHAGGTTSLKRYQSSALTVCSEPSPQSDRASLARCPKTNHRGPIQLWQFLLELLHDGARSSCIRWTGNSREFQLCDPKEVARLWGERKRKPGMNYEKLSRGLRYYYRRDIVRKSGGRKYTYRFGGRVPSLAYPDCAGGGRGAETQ

Q: With CTAACA as the sequence, how does the binding signal read?
A: The binding signal was 1.21.

Q: How did the binding signal turn out when CGAATC was run?
A: The binding signal was 0.986.

Q: How did the binding signal turn out when TACAGA was run?
A: Its binding signal is 1.25.
